Experimental data: US20070059756A1, “Immunointeractive molecules and their uses in treating subjects suffering from Hev b 5 allergies” (priority 1999, published 2007)
Some entries share one result that the patent states for a list of compounds.

System: latex specific T cell lines
Assay: Oligoclonal T cell proliferation assay (3H-thymidine incorporation)
Type: cell-based, human
Details: fourth of five donors (patient 4)
Experimental: Latex specific T cell lines were isolated using our well established methods for the generation of allergen specific oligoclonal T cell populations (O'Hehir et al., 1987). An initial primary culture was performed for each patient to determine the optimal concentration of LAL for stimulation. For this, peripheral blood mononuclear cells (PBMC) separated from heparinised venous blood by density centrifugation (2×10^5/well) were stimulated with LAL over a concentration range 0.03 to 100 μg/ml, with control cultures of PBMC alone or stimulated with tetanus toxoid. All cultures were maintained in complete medium (RPMI-1640, Gibco Life Technologies supplemented with 2 mmol/L L-glutamine, 100 IU/ml penicillin-streptomycin and 5% screened, heat inactivated human AB serum [Sigma]). […] Therefore, to generate T cell lines, PBMC (2.5×10^6/well) were stimulated for 1 week with LAL at a concentration of 20 μg/ml in 24-well tissue culture plates (Costar, USA). After 7 days, lymphoblasts (1×10^6/well) were restimulated for one week with LAL at a concentration of 20 μg/ml in the presence of an equal number of irradiated (3000 rad) autologous PBMC as antigen presenting cells (APC). On days 2 and 4, cultures were supplemented with Lymphocult-T (5% v/v; Biotest Folex, Germany) and fresh medium. At the end of the second week, lymphoblasts were restimulated for one week with rhev b 5/MBP at a concentration of 20 μg/ml as described above. Oligoclonal T cells were recovered, washed and tested in proliferation and cytokine assays (as described below) either fresh or after cryopreservation in liquid nitrogen. We have previously shown that CD4^+ T cells are preferentially expanded in these cultures.
Oligoclonal T cell blasts (5×10^4) were incubated in 96-well round bottom plates (Linbro, ICN Biomedicals, USA) in triplicate with equal numbers of irradiated APC in the presence of LAL at concentrations ranging from 0.03-100 μg/ml, rHev b 5/MBP (10 and 20 μg/ml), MBP (10 and 20 μg/ml), overlapping peptides of the Hev b 5 sequence (10 and 30 μg/ml), Lymphocult-T (10 IU/ml) or PHA (3 μg/ml). Cultures of T cells and APC in the absence of antigen, T cells alone and APC alone in the absence of antigen were included as controls. After 72 hours cultures were pulsed with 1 μCi of ^3H-thymidine (^3HTdR; Du Pont, NEN) and harvested 12-16 hours later. Proliferation as correlated with ^3HTdR incorporation was measured by liquid scintillation spectroscopy. Results are expressed as mean counts per minute (cpm) for triplicate cultures with standard deviation (SD; ±20% for all experiments).

| Sequence | stimulation index | stimulation index (listed as (45-65)) |
| --- | --- | --- |
| APAEPEAPAPETEKAEEVEK [Hev b 5 (55-74)] | greater than or equal to 2.5 |  |
| ASEQETADATPEKEEPTAAP [Hev b 5 (37-56)] | greater than or equal to 2.5 |  |
| TKETETEAPAAPAEGEKPAE [Hev b 5 (109-128)] | greater than or equal to 2.5 |  |
| TPEKEEPTAAPAEPEAPAPE [Hev b 5 (46-65)] |  | greater than or equal to 2.5 |
